For some of these results: A negative result means that nothing was seen under these conditions. For some of these results: For at least one entry, the source does not settle the construct or the ends of the probe. For some of these results: Weaker means in comparison with the reference protein, sequence or condition of that experiment.

Data set [1] concerns Insulin. Nature of the data set: flow cytometry. To be noted: 1% human serum; no meaningful Kd obtainable; purified recombinant protein; protein details: Alexa Fluor 647 labelled, Nanocs; label: 5' biotin (listed as IGA3 bt); single-stranded DNA. Background: A flow cytometer gives signals particle by particle.
Data set [2] concerns Insulin. Nature of the data set: binding assay. To be noted: dT replaced by C8-alkyne-dU clicked with phenylalanine azide; N2A2; specific family, signal similar in buffer and 1% serum; purified recombinant protein; protein details: Alexa Fluor 647 labelled, Nanocs; single-stranded DNA.
The test system of data set [3] is VEGF (vascular endothelial growth factor). Nature of the data set: binding assay. To be noted: N2A2, protein details: Dylight 650 NHS labelled, R&D Systems, single-stranded DNA, variant of K SL2-B positive control.

In the case of GGTGGTGGGGGGGGTTGGTAGGGTGTCTTC [IGA3], in the data set with Insulin [1], the binding result is recorded as “no binding”. On to “ATGAAGCCGCCCGAACGTGCCCATGACCCCTGCCTATCGC [insulin family consensus (SEQ 19)]”, for which the binding result with Insulin [2] is recorded as “binds”. On the same count and under the same terms, the same measure for “ACCGTCGAGAACTCCTCCGGCTCTAACTCCGATTATAGCC [insulin family consensus (SEQ 22)]”: “binds”. Regarding “AGCAGCACAGAGGTCAGATGAATTGGGCCCGTCCGTATGGTGGGTCCTATGCGTGCTACCGTGAA [K SL2-B positive control, Trp-modified]”, the binding result in data set [3] (all dT replaced by C8-alkyne-dU clicked with tryptophan azide, Trp modification, barely above background, purified recombinant protein) is on record as “binds more weakly”. In the case of “GGGCCCGTAGAATTGGAAAATATTACCTTCCGGAAGGCAA [insulin family consensus (SEQ 21)]”, the binding result in the data set on Insulin [2] was “binds”.

Turning to “AGCAGCACAGAGGTCAGATGAATTGGGCCCGTCCGTATGGTGGGTCCTATGCGTGCTACCGTGAA [K SL2-B positive control, Tyr-modified]”, the binding result in data set [3] (all dT replaced by C8-alkyne-dU clicked with tyrosine azide, Tyr modification enhances affinity and intensity vs natural DNA, purified recombinant …) was “binds”. As for “ACCGACCGGTTAACACAACGAAATACGCGGTATCCATCAT [insulin family consensus (SEQ 20)]”, the binding result with Insulin [2] is “binds”.

Source of the values: patent US20210324374.
